Among the data in article doi:10.1101/2023.06.02.543457 are binding values, retold here.

These are yes or no findings as the source states them, for the method shown. In cells and extracts the contact can be indirect. A yes stands for co-enrichment or nearness to the bait. Other partners may have been found.

In one assay the target is T1, Rsph1 (mouse) (UniProt Q8VIG3).
T1 sequence: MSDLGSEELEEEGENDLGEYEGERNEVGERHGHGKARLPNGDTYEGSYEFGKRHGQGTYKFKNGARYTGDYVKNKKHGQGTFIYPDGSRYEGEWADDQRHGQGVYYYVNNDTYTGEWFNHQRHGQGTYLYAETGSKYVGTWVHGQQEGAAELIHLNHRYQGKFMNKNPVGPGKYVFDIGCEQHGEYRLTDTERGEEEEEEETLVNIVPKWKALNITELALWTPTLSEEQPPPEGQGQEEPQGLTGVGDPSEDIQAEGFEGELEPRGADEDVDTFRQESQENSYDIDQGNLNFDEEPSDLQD
The experiment in a line: affinity purification with mass spectrometry.

The target of a further assay is T2, Rsph16 (mouse) (UniProt Q80Y75).
T2 sequence: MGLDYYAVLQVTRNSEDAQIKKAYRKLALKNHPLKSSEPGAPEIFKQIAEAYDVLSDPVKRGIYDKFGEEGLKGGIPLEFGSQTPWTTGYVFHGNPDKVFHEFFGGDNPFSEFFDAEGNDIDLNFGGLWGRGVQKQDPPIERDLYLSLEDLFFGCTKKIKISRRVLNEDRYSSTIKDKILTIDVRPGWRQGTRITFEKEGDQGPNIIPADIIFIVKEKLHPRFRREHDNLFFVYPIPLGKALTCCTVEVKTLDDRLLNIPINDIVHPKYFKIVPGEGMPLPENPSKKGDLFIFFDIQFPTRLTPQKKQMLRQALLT
Description: affinity purification with mass spectrometry.

B1: Rsph10b (protein, UniProt E9PYQ0 1-876)
chain: MVKEKKKADKKGDKSARSPSSISDNPEASKQDSNASKQEVAPSAVVPVVETPLKQAPKRDSVQMEQSEEETQYEEPILTKLIVESYEGEKVRGLYEGEGFAVFQGGNTYHGMFSEGLMHGQGTYIWADGLKYEGDFVKNIPMNHGVYTWPDGSTYEGEVTNGMRNGFGMFKCGTQPVSYIGHWCHGKRHGKGSIYYNQEGTSWYEGDWVYNIKKGWGIRCYKSGNIYEGQWENNMRHGEGRMRWLTTNEEYTGHWEKGIQNGFGTHTWFLKRIPNSQYPLRNEYIGEFVNGFRHGQGKFYYASGAMYEGEWASNKKQGRGRMTFKNGHVYEGLFSNDHIAQFFETEMDYSQSLDRWSDASQRSRQPRGSSVSAVREPETLRKLDGSESRSVLGTSIELDLTLLLDMYPEESQEEEKKQVEYAVLRNITELRRIYCFYSGLGCDHSLDNTFLMTKLHFWRFLKDCRFHHHNITLADMDRVLSVYNGIPIEEIHSPFRTILLRTFLNYLLQLAYYIHHKEFQNRSPSLFLCFTKLMSENIHPHACQVKGHLFSEQQRTLYSMNYIDKCWEIYTAYCRPNEAPPYELTMKMRYFLWMLKDFRMINKDLTATKFMTVIAEDNPFVYDGTDSNFELELVFLEFFEALLCFSLCCMFDQMTRSYLKVPYDDITTNRYGSTQTILNQSIHRSPSAITSHDSEVHFSSTKSSLDKIGALPDGKIRQSEPKLKKSLSEDKVSKMNFKTQGRGLVFMSPQGEKYEKPKDEQKEKLNIWVNNLYVFFVSVLFSAYKREEMLKEKVKENQLQEAELAQQRQIENEELEARLNILREEEARKQDFELDITVLKEPSEIPASQPLTPSPPKEDLASIQTSKASPGKKKKK
Consider B1, for which the binding result with Rsph1 (mouse) and in the assay with Rsph16 (mouse) was “binds” throughout.
